Data as given in article PMC212687.
For at least one entry, the source does not settle the construct or the ends of the probe. A weaker result is weaker than the reference pair of the same experiment. At least one verdict rests on a figure or table, not on a statement of the authors.

Test system: RAG1 + RAG2 + HMG (HMG-1/2)
Assay: EMSA
Settings: Standard gel shift, three experiments, recombinant protein, label: 5' end label, top strand

Q: Does “GATCTGGCCTGGTCTGCACAGTGATACAGCCCTTAACAAAAACCTGCACTCGAGCGGAG (double strand) [H-Sc-N (consensus 12-RSS)]” bind (highest binding of all RSSs)?
A: binds

Q: Does “GATCTGGCCTGGTCTGCACAGTGCAGATCTAGGAGAGAGAAACCTGCACTCGAGCGGAG (double strand) [H-Sac (anticonsensus spacer)]” bind (Sac level very similar to RSS with Jβ2.6 spacer (H))?
A: binds more weakly

Q: Does “GATCTGGCCTGGTCTGCACAACCATACAGCCCTTAAGAGAAACCTGCACTCGAGCGGAG (double strand) [Sc (Jβ2.6 with consensus spacer)]” bind (no change vs Jβ2.6 (weak))?
A: binds more weakly

Q: Does “GATCTGGCCTGGTCTGCACAACCCAGATCTAGGAGACAAAAACCTGCACTCGAGCGGAG (double strand) [Sac-N]” bind (lower than Sc-N, similar to N)?
A: binds more weakly

Q: Does “GATCTGGCCTGGTCTGCACAGTGCTGTGACTCCCAACAAAAACCTGCACTCGAGCGGAG (double strand) [H-N]” bind (lower than Sc-N)?
A: binds more weakly

Q: Does “GATCTGGCCTGGTCTGCACAGTGCTGTGACTCCCAAGAGAAACCTGCACTCGAGCGGAG (double strand) [H (Jβ2.6 with consensus heptamer)]” bind (consensus heptamer reduces binding vs Jβ2.6)?
A: binds more weakly

Q: Does “GATCTGGCCTGGTCTGCACAACCATACAGCCCTTAACAAAAACCTGCACTCGAGCGGAG (double strand) [Sc-N]” bind (spacer boosts binding with N, Sc-N > H-N)?
A: binds
